Measurements published in publication PMC3942315, “Structural Insights Into DNA Repair by RNase T—An Exonuclease Processing 3′ End of Structured DNA in Repair Pathways” (PLoS Biology, 2014).

Key:
Assay in all cases: EMSA
[1] = target: T1, ExoI (exonuclease I) (Escherichia coli (JM109 or K-12)) (UniProt P04995); conditions: 30 mM EDTA, 10 mM EGTA, EMSA: 20 nM DNA, 0/5/50 uM protein, 100 mM NaCl, 50 mM Tris-HCl pH 7.0, 20 min, room temperature, recombinant protein, residues 1-475, protein details: N-terminal His (pET-28a), label: 5'-32P
T1 sequence (looked up): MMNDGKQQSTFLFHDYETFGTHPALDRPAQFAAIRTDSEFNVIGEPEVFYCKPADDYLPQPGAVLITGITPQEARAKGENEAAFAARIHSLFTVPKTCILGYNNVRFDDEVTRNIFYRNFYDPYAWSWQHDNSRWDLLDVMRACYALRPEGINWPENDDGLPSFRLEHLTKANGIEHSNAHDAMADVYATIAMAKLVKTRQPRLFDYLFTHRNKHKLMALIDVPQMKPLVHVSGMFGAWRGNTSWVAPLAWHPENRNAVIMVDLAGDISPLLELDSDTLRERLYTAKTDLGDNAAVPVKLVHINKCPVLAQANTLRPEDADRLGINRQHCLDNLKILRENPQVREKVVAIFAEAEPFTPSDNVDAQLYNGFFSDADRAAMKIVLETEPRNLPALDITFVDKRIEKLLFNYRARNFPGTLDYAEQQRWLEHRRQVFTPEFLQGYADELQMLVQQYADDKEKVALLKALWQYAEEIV

[2] = target: T2, ExoX (exonuclease X) (Escherichia coli (JM109 or K-12)) (UniProt P0AEK0); conditions: 30 mM EDTA, 10 mM EGTA, EMSA: 20 nM DNA, 0/5/50 uM protein, 100 mM NaCl, 50 mM Tris-HCl pH 7.0, 20 min, room temperature, recombinant protein, residues 1-220, protein details: N-terminal His (pET-28a), label: 5'-32P
T2 sequence (looked up): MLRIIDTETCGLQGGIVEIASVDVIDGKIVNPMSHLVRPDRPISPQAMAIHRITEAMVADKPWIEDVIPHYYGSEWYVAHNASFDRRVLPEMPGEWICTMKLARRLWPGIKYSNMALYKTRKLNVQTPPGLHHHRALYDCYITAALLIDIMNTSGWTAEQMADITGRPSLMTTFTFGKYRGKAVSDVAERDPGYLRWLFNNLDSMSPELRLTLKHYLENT

[3] = target: T3, RNase T (Escherichia coli (JM109 or K-12)) (UniProt P30014); conditions: 30 mM EDTA, 10 mM EGTA, similar affinity to duplexes, EMSA: 20 nM DNA, 0/5/50 uM protein, 100 mM NaCl, 50 mM Tris-HCl pH 7.0, 20 min, room temperature, recombinant protein, residues 1-215, protein details: N-terminal His (pET-28a), label: 5'-32P, single-stranded DNA
T3 sequence (looked up): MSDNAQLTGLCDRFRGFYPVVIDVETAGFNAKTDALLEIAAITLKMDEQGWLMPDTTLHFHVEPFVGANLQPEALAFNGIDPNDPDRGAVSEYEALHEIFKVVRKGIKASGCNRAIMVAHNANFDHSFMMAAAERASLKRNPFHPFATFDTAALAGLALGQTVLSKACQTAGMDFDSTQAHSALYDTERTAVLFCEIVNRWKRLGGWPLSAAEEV

| Sequence | binding result ([1]; folded or branched DNA) | binding result ([2]; folded or branched DNA) | binding result ([1]; single-stranded DNA) | binding result ([2]; single-stranded DNA) | binding result [3] |
| --- | --- | --- | --- | --- | --- |
| GGCCCTCTTTAGGGCCTTATAA [Stem-loop duplex DNA, 6-nt 3' overhang] | binds more weakly | binds more weakly |  |  |  |
| AATCTTACAAA [ssDNA 11mer] |  |  | binds | binds | binds |
| GGCCCTCTTTAGGGCCTTAA [Stem-loop duplex DNA, 4-nt 3' overhang] | binds more weakly | binds more weakly |  |  |  |

For some of these results: Weaker means in comparison with the reference protein, sequence or condition of that experiment. Where a protein sequence is shown, tags need not be part of it. For at least one entry, the source does not settle the construct or the ends of the probe. At least one verdict was read from the data and is not stated in words by the source.
